± gives the standard deviation of the averaged measurements. This is a selection; strong and weak results do not stand in their true shares.
Compound: Nc1ncnc2c1ncn2[C@@H]1O[C@H](COP(=O)(O)OP(=O)(O)OP(=O)(O)O)[C@@H](O)[C@H]1O [adenosine triphosphate]
Test: NP40-soluble protein abundance relative to vehicle (solubility fold change) (ratio); higher = more soluble protein in presence of ATP
In short: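 Crude Jurkat lysate, prepared by Dounce homogenisation, was exposed to eight concentrations from 0.1 to 10 mM for 10 min at room temperature and then 3 min at 37 °C. Solubilisation used 0.8% NP40 with benzonase for 60 min at 4 °C, followed by ultracentrifugation and TMT labelling of the supernatant for LC-MS/MS. After vsn normalisation of intensities, each value is the fold change against the detergent-processed vehicle within each replicate, across three independent experiments.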

Sequences of proteins named here, by UniProt entry; tags and fusion partners are left off. A change or cut given only in a name is not applied to a line headed by its entry.
UniProt Q9H444: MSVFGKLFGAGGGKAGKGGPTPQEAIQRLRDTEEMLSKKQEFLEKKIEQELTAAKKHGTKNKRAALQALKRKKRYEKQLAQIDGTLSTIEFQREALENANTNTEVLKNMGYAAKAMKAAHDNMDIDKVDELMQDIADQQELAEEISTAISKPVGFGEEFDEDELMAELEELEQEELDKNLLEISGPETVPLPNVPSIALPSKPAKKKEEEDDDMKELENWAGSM
UniProt Q9H3H5: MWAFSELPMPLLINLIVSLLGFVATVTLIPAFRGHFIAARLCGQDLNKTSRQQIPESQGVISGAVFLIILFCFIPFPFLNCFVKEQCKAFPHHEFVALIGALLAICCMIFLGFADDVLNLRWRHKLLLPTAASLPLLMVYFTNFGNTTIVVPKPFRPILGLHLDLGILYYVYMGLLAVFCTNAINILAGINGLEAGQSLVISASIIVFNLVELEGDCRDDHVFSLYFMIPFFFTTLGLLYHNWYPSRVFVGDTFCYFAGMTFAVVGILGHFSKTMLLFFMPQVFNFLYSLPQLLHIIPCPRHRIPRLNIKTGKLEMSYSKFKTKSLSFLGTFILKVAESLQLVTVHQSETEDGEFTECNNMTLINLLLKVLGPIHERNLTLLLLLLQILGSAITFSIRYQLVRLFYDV
UniProt Q9GZP4: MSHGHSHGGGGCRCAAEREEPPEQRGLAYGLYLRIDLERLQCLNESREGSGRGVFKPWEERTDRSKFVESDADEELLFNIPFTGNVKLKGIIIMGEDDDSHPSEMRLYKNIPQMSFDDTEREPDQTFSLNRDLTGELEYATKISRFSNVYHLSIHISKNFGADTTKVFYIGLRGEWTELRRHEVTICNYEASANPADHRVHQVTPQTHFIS
UniProt Q9H3R0: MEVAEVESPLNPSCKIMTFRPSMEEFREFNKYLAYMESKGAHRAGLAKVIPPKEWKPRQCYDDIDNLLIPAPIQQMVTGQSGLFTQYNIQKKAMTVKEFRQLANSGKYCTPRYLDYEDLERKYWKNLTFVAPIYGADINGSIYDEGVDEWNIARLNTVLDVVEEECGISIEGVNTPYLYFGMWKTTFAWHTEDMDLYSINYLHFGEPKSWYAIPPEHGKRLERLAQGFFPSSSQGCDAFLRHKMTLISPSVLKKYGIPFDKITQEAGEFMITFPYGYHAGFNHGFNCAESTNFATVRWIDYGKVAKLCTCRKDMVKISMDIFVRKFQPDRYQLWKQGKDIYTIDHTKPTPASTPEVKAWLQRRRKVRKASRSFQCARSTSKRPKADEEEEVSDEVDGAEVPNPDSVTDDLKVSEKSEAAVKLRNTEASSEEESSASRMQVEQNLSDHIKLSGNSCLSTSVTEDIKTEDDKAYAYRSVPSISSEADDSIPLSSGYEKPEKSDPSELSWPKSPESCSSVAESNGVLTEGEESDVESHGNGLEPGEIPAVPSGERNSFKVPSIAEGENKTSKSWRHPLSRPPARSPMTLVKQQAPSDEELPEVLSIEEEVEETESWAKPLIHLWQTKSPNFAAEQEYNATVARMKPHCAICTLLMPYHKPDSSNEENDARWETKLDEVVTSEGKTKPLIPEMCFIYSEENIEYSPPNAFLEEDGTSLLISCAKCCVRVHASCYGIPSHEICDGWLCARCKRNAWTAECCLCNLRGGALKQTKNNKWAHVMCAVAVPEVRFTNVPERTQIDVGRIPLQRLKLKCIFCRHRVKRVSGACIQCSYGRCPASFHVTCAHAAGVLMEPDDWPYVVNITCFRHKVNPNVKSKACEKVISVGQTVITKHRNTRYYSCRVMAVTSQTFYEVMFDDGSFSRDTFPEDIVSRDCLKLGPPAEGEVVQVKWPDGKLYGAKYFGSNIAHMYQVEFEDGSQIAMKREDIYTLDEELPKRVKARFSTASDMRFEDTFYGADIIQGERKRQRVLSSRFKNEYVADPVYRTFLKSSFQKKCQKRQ
UniProt Q9HA47: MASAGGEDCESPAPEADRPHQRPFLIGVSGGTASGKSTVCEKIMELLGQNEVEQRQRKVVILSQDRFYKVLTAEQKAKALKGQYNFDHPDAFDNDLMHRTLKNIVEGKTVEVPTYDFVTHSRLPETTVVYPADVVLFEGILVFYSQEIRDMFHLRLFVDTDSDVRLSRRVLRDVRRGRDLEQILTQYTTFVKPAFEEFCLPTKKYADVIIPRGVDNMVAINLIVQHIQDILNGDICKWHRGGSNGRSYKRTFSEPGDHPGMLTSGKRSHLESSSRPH
UniProt Q9H0R6: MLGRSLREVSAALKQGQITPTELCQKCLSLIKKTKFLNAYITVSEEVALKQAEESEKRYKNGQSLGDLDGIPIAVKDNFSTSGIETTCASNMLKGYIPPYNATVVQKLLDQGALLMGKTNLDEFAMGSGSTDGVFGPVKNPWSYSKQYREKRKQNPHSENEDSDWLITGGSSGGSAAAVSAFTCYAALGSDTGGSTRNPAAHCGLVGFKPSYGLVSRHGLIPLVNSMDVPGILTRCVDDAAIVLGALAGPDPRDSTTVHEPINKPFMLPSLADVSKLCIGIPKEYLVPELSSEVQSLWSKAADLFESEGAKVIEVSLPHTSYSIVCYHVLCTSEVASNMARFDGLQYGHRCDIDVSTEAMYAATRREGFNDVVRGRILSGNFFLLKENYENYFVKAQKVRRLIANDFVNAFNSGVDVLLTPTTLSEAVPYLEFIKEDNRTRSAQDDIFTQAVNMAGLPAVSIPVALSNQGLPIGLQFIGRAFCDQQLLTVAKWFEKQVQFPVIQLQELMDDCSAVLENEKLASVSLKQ
UniProt Q9HBL7: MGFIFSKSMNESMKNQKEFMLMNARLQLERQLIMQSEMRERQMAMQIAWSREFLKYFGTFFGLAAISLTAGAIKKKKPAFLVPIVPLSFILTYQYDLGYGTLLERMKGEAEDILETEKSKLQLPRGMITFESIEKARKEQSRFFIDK
UniProt Q9H871: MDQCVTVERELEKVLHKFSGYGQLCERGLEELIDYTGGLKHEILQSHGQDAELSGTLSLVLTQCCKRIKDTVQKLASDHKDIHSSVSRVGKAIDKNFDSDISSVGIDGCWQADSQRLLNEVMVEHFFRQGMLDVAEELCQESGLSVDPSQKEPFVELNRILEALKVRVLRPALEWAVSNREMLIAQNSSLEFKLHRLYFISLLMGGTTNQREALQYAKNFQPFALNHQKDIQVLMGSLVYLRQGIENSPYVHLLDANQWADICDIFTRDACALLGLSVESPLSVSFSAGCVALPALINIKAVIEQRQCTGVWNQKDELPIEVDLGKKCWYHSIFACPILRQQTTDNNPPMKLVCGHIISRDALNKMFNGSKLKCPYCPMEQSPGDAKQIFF
UniProt Q9HCN4, whole entry: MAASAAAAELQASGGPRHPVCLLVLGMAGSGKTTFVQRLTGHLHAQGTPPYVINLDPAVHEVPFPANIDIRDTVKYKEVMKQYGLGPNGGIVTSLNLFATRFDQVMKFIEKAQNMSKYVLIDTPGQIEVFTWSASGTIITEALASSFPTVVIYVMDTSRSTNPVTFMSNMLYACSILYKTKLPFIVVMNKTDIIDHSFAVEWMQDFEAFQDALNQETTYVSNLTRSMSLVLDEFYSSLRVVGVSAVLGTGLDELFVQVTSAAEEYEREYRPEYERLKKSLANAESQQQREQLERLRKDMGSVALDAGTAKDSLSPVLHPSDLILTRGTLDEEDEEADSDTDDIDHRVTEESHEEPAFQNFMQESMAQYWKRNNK
UniProt Q9H1E5: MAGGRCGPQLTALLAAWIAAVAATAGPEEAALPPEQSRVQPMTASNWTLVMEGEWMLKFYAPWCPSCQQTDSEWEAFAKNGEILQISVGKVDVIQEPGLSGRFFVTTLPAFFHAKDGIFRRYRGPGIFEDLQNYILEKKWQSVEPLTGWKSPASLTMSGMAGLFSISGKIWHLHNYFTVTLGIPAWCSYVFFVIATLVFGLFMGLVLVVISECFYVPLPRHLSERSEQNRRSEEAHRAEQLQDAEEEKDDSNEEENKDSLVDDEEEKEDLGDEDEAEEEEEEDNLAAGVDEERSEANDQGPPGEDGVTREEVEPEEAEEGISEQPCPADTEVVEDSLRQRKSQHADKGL
UniProt Q9C0D2: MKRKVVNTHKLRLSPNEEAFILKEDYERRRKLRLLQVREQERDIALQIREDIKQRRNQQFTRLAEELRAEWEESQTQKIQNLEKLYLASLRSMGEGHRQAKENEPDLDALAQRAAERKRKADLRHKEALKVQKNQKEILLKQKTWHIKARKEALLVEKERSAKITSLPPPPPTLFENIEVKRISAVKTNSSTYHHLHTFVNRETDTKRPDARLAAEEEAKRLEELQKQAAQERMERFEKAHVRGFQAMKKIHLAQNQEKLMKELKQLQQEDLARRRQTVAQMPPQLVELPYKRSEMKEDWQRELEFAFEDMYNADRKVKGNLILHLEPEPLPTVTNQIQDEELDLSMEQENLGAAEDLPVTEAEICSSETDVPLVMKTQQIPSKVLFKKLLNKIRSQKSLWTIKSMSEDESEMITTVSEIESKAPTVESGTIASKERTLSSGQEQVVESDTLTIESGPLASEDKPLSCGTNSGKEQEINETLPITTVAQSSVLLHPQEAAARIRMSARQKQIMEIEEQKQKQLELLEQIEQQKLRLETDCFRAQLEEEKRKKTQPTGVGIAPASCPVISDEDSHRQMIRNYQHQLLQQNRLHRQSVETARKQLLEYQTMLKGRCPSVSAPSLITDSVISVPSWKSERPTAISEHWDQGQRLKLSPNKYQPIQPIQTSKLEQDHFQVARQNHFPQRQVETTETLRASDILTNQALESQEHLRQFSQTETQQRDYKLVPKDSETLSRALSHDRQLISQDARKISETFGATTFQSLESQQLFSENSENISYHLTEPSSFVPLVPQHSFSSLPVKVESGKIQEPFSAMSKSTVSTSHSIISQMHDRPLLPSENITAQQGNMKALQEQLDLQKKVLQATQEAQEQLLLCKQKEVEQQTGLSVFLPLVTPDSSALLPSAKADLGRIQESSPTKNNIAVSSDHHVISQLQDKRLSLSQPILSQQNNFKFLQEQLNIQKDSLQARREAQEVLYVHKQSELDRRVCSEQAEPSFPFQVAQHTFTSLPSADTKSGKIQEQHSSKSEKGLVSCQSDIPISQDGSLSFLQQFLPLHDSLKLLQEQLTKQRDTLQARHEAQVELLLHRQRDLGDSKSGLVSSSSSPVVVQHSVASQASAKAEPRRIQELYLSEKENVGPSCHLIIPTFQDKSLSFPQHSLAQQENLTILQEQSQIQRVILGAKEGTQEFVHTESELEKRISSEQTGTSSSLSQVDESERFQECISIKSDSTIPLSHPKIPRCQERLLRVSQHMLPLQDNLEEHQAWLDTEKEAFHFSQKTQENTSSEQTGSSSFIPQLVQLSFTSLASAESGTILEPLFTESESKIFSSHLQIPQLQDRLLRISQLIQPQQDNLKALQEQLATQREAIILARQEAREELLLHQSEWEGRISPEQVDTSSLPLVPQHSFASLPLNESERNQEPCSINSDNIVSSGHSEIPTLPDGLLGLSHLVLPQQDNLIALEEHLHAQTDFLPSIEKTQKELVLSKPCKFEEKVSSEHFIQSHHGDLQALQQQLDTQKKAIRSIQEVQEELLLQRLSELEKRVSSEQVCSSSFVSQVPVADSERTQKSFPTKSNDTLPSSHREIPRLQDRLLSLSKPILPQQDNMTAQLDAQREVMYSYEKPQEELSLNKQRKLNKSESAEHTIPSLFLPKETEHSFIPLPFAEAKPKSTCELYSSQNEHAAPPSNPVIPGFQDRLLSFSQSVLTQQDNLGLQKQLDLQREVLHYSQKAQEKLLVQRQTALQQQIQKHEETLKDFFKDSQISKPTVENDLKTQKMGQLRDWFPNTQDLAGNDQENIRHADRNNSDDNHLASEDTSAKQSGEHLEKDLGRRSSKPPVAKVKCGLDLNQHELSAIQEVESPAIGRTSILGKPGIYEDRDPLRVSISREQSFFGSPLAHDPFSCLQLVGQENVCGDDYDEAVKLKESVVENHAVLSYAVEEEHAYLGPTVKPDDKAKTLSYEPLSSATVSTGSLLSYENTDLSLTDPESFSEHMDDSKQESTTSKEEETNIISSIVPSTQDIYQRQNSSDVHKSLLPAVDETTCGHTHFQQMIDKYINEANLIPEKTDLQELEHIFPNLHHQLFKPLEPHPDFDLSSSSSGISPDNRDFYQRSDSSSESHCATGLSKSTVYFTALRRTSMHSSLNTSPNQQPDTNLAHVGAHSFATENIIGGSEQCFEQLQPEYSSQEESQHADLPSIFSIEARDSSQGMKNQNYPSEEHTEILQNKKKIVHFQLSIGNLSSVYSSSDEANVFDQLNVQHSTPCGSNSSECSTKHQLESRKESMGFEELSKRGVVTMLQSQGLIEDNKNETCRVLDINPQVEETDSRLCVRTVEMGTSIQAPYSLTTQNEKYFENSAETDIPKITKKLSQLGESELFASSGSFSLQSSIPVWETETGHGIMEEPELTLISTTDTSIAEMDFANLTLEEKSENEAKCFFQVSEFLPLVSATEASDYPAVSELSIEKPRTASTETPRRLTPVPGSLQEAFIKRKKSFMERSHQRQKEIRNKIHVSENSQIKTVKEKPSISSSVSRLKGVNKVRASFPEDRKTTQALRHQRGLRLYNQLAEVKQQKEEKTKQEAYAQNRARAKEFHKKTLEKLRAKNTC

Target	NP40-soluble protein abundance (concentration: 1mM)	NP40-soluble protein abundance (concentration: 2mM)	NP40-soluble protein abundance (concentration: 4mM)	NP40-soluble protein abundance (concentration: 6mM)	NP40-soluble protein abundance (concentration: 8mM)	NP40-soluble protein abundance (concentration: 10mM)
SSU72 (UniProt Q9NP77)	1.04 ± 0.11	1.05 ± 0.018	1.02 ± 0.048	1.05 ± 0.025	1.01 ± 0.05	0.949 ± 0.028
UniProt Q9H668	0.914 ± 0.25	0.9 ± 0.11	0.964 ± 0.25	0.958 ± 0.15	0.951 ± 0.083	1.01 ± 0.17
CENPH (UniProt Q9H3R5)	0.992 ± 0.12	0.968 ± 0.065	1.01 ± 0.069	1.03 ± 0.077	1.03 ± 0.048	0.937 ± 0.17
RPAP3 (UniProt Q9H6T3)	0.998 ± 0.032	1 ± 0.017	0.974 ± 0.027	1.06 ± 0.049	0.994 ± 0.025	1.002 ± 0.0046
UniProt Q9H5X1	0.934 ± 0.04	0.985 ± 0.021	0.988 ± 0.025	1 ± 0.072	0.9298 ± 0.0039	0.898 ± 0.014
APOBEC3G (UniProt Q9HC16)	1.06 ± 0.12	1.05 ± 0.094	0.941 ± 0.15	1.05 ± 0.12	1.04 ± 0.16	1.06 ± 0.098
UniProt Q9HCI7 and related entries	1.31 ± 0.092	1.33 ± 0.15	1.35 ± 0.18	1.41 ± 0.092	1.43 ± 0.17	1.5 ± 0.13
UniProt Q9C0B7	1.11 ± 0.13	1.01 ± 0.11	1.1 ± 0.063	0.979 ± 0.15	0.952 ± 0.25	1.03 ± 0.058
CHMP4B (UniProt Q9H444)	1.04 ± 0.16	1.02 ± 0.099	1.02 ± 0.13	1.1 ± 0.11	1.03 ± 0.053	0.951 ± 0.17
UniProt Q9H936 and related entries	0.95 ± 0.065	0.97 ± 0.031	0.958 ± 0.06	0.906 ± 0.042	0.942 ± 0.064	1.01 ± 0.085
XAB2 (UniProt Q9HCS7)	1.1 ± 0.1	1 ± 0.06	1.01 ± 0.066	0.939 ± 0.047	1.04 ± 0.057	1.02 ± 0.092
UniProt Q9H9Y6 and related entries	1.16 ± 0.12	1.18 ± 0.11	1.28 ± 0.07	1.22 ± 0.095	1.34 ± 0.077	1.34 ± 0.081
UniProt Q9H773	0.83 ± 0.0096	0.89 ± 0.042	0.924 ± 0.12	0.822 ± 0.0085	0.813 ± 0.13	0.73 ± 0.11
TAOK3 (UniProt Q9H2K8)	1.01 ± 0.056	0.981 ± 0.036	0.984 ± 0.028	0.985 ± 0.05	0.992 ± 0.024	0.996 ± 0.02
TNKS1BP1 (UniProt Q9C0C2)	1.08 ± 0.091	1.08 ± 0.071	1.09 ± 0.063	1.15 ± 0.14	1.08 ± 0.082	1.12 ± 0.089
RAB1B (UniProt Q9H0U4)	0.957 ± 0.059	0.935 ± 0.057	0.901 ± 0.065	0.965 ± 0.048	0.907 ± 0.045	0.907 ± 0.041
WDR13 (UniProt Q9H1Z4)	1.06 ± 0.13	0.918 ± 0.16	0.958 ± 0.033	0.896 ± 0.11	0.992 ± 0.11	1.01 ± 0.041
SPRTN (UniProt Q9H040)	1.02 ± 0.24	1.04 ± 0.26	1.11 ± 0.094	1.11 ± 0.085	0.929 ± 0.021	1.02 ± 0.021
UniProt Q9H3H5 and related entries	1.08 ± 0.22	1.06 ± 0.13	0.987 ± 0.12	0.873 ± 0.12	1.04 ± 0.1	1.02 ± 0.072
UNC93B1 (UniProt Q9H1C4)	1.1 ± 0.16	0.977 ± 0.032	1.16 ± 0.18	1.05 ± 0.11	1.12 ± 0.15	0.972 ± 0.036

Target	NP40-soluble protein abundance (concentration: 1mM)	NP40-soluble protein abundance (concentration: 2mM)	NP40-soluble protein abundance (concentration: 4mM)	NP40-soluble protein abundance (concentration: 6mM)	NP40-soluble protein abundance (concentration: 8mM)	NP40-soluble protein abundance (concentration: 10mM)
UniProt Q9GZP4	0.988 ± 0.045	0.991 ± 0.05	0.936 ± 0.066	0.993 ± 0.049	0.942 ± 0.067	0.93 ± 0.026
UniProt Q9HCE9 and related entries	0.956 ± 0.099	1.01 ± 0.11	1.04 ± 0.016	0.959 ± 0.21	0.907 ± 0.16	1.02 ± 0.13
UniProt Q9H3R0 and related entries	1.05 ± 0.022	1.03 ± 0.051	1.03 ± 0.069	1.17 ± 0.12	1.05 ± 0.043	1.03 ± 0.054
UniProt Q9HD33 and related entries	1 ± 0.12	0.888 ± 0.17	0.887 ± 0.1	0.973 ± 0.33	0.851 ± 0.19	0.89 ± 0.14
PLEKHA3 (UniProt Q9HB20)	1.01 ± 0.0094	1.09 ± 0.082	1 ± 0.074	0.996 ± 0.042	0.974 ± 0.11	0.939 ± 0.058
LYRM4 (UniProt Q9HD34)	0.959 ± 0.071	0.948 ± 0.079	0.929 ± 0.053	0.98 ± 0.09	0.933 ± 0.041	0.885 ± 0.088
ZHX3 (UniProt Q9H4I2)	1 ± 0.097	1.01 ± 0.062	1.05 ± 0.094	1.02 ± 0.039	0.978 ± 0.056	1.01 ± 0.051
UniProt Q9GZT3	0.955 ± 0.073	0.934 ± 0.038	0.915 ± 0.031	0.927 ± 0.05	0.9211 ± 0.0055	0.872 ± 0.088
ACBD3 (UniProt Q9H3P7)	1.02 ± 0.037	1.02 ± 0.024	1 ± 0.052	0.982 ± 0.084	1.01 ± 0.063	0.962 ± 0.026
OSGEPL1 (UniProt Q9H4B0)	1.03 ± 0.014	1.06 ± 0.039	1.08 ± 0.028	1 ± 0.067	1.08 ± 0.011	1.07 ± 0.067
SEPSECS (UniProt Q9HD40)	0.953 ± 0.03	0.968 ± 0.045	1.03 ± 0.1	1 ± 0.052	0.988 ± 0.073	1 ± 0.099
WDR55 (UniProt Q9H6Y2)	1.12 ± 0.1	1.13 ± 0.088	1.14 ± 0.064	1.14 ± 0.037	1.04 ± 0.066	1.12 ± 0.042
UniProt Q9GZY8-2|Q9GZY8-5	0.952 ± 0.13	0.922 ± 0.11	0.98 ± 0.16	0.919 ± 0.17	0.968 ± 0.24	0.992 ± 0.23
LRRC40 (UniProt Q9H9A6)	0.993 ± 0.033	0.974 ± 0.038	0.978 ± 0.027	0.935 ± 0.029	0.968 ± 0.01	0.999 ± 0.04
RACGAP1 (UniProt Q9H0H5)	1.1 ± 0.033	1.14 ± 0.047	1.14 ± 0.035	1.2 ± 0.041	1.17 ± 0.035	1.19 ± 0.036
UniProt Q9HA65 and related entries	0.978 ± 0.015	0.9913 ± 0.0066	0.9245 ± 0.0085	0.979 ± 0.015	0.913 ± 0.043	0.898 ± 0.077
UniProt Q9H425 and related entries	0.993 ± 0.058	1.01 ± 0.055	0.995 ± 0.029	1.02 ± 0.02	0.966 ± 0.036	0.956 ± 0.059
UCK1 (UniProt Q9HA47)	0.962 ± 0.03	0.967 ± 0.061	0.979 ± 0.055	1.04 ± 0.095	1 ± 0.069	0.956 ± 0.12
UniProt Q9H330 and related entries	0.937 ± 0.026	0.947 ± 0.047	0.937 ± 0.034	0.968 ± 0.027	0.896 ± 0.024	0.941 ± 0.061
QRSL1 (UniProt Q9H0R6)	0.998 ± 0.034	1.03 ± 0.036	0.987 ± 0.017	1.03 ± 0.033	0.977 ± 0.042	0.991 ± 0.033

Target	NP40-soluble protein abundance (concentration: 1mM)	NP40-soluble protein abundance (concentration: 2mM)	NP40-soluble protein abundance (concentration: 4mM)	NP40-soluble protein abundance (concentration: 6mM)	NP40-soluble protein abundance (concentration: 8mM)	NP40-soluble protein abundance (concentration: 10mM)
MED20 (UniProt Q9H944)	1.01 ± 0.022	0.994 ± 0.018	0.985 ± 0.012	0.954 ± 0.027	0.969 ± 0.028	0.981 ± 0.025
TLNRD1 (UniProt Q9H1K6)	1.05 ± 0.077	1.07 ± 0.037	1.03 ± 0.12	0.97 ± 0.04	1 ± 0.038	1.07 ± 0.16
UniProt Q9C0I1	0.964 ± 0.12	0.965 ± 0.068	0.956 ± 0.14	0.924 ± 0.099	0.962 ± 0.1	0.942 ± 0.091
MRPL44 (UniProt Q9H9J2)	1.04 ± 0.061	0.943 ± 0.076	0.892 ± 0.027	0.896 ± 0.18	0.933 ± 0.16	0.898 ± 0.11
UniProt Q9HBL7	1.03 ± 0.055	1.01 ± 0.049	1.03 ± 0.083	0.97 ± 0.048	1.02 ± 0.065	0.942 ± 0.043
BOLA2 (UniProt Q9H3K6)	0.878 ± 0.1	0.91 ± 0.024	0.868 ± 0.062	0.925 ± 0.042	0.872 ± 0.011	0.866 ± 0.048
UniProt Q9H0P0 and related entries	0.983 ± 0.051	0.96 ± 0.03	0.981 ± 0.013	0.988 ± 0.045	0.948 ± 0.077	0.952 ± 0.062
ATG5 (UniProt Q9H1Y0)	0.985 ± 0.069	0.991 ± 0.074	0.992 ± 0.073	0.95 ± 0.044	0.959 ± 0.08	0.952 ± 0.066
UniProt Q9GZT8 and related entries	0.951 ± 0.049	0.94 ± 0.046	0.924 ± 0.05	0.889 ± 0.078	0.948 ± 0.042	0.951 ± 0.028
UniProt Q9GZS1-2	1.04 ± 0.085	1.06 ± 0.03	1.13 ± 0.091	1.14 ± 0.037	1.18 ± 0.089	1.19 ± 0.059
UniProt Q9H7C9	0.946 ± 0.065	0.954 ± 0.022	0.952 ± 0.025	0.961 ± 0.045	0.94 ± 0.015	0.881 ± 0.067
UniProt Q9H871	1.05 ± 0.048	0.993 ± 0.052	0.976 ± 0.062	0.946 ± 0.16	0.982 ± 0.096	0.987 ± 0.087
UniProt Q9GZM8 and related entries	0.863 ± 0.2	0.871 ± 0.11	0.886 ± 0.045	0.919 ± 0.17	0.9219 ± 0.005	0.849 ± 0.13
GPN1 (UniProt Q9HCN4)	0.984 ± 0.053	1.01 ± 0.053	0.989 ± 0.072	0.969 ± 0.069	0.972 ± 0.047	1.01 ± 0.044
UniProt Q9H1E5	0.8322 ± 0.0022	0.943 ± 0.028	0.886 ± 0.038	0.802 ± 0.1	0.8674 ± 0.0085	0.913 ± 0.016
UniProt Q9C0H2 and related entries	0.915 ± 0.057	0.879 ± 0.084	0.892 ± 0.076	0.953 ± 0.027	0.963 ± 0.051	0.87 ± 0.1
MVB12B (UniProt Q9H7P6)	0.9484 ± 0.0076	0.962 ± 0.046	0.935 ± 0.031	0.946 ± 0.031	0.931 ± 0.016	0.942 ± 0.031
UniProt Q9H6Q4	0.994 ± 0.044	0.947 ± 0.035	1.03 ± 0.04	0.935 ± 0.045	0.936 ± 0.033	0.967 ± 0.026
UniProt Q9C0D2 and related entries	0.927 ± 0.027	0.913 ± 0.055	0.906 ± 0.035	1.01 ± 0.022	0.956 ± 0.02	0.967 ± 0.033
UniProt Q9H2D6 and related entries	1.03 ± 0.054	1.03 ± 0.07	1.027 ± 0.01	1.01 ± 0.052	1.02 ± 0.12	0.976 ± 0.096

Some values from the list.
NP40-soluble protein abundance (concentration: 4mM), UniProt Q9H7C9 is entered as 0.952 ± 0.025
NP40-soluble protein abundance (concentration: 6mM), ATG5 (UniProt Q9H1Y0) is entered as 0.95 ± 0.044
